Experimental data as given in patent US10624948B2, “Use of cell-permeable peptide inhibitors of the JNK signal transduction pathway for the treatment of various diseases” (Xigen Inflammation Ltd., priority 2013, dated 2020).
Not every detail of the peptide structures is certain; ends, links or a residue may be inferred.

Columns and labels:
[1] = test system: Varicella-Zoster Virus (VZV); experiment: VZV-BAC-Luc replication in HFFs, luciferase assay; type: cell-based; details: 24 h treatment
hAPP Tg mice = experiment: hAPP-transgenic mice model of Alzheimer's disease (MWM, Aβ ELISA, plaque load); type: in vivo

`CC(C)C[C@@H](NC(=O)[C@@H](Cc1ccccc1)NC(=O)[C@H]1CCCN1C(=O)[C@@H](CCC(N)=O)NC(=O)[C@H](NC(=O)[C@H]1CCCN1C(=O)[C@@H](CCCNC(=N)N)NC(=O)[C@@H](CO)NC(=O)[C@@H](CCC(N)=O)NC(=O)[C@H](N)CC(=O)O)C(C)C)C(=O)N[C@H](CC(N)=O)C(=O)N[C@H](CC(C)C)C(=O)N[C@@H](C(=O)N[C@@H](C(=O)N1CCC[C@@H]1C(=O)N[C@H](CCCNC(=N)N)C(=O)N[C@H](CCCCN)C(=O)N1CCC[C@@H]1C(=O)N[C@H](CCCNC(=N)N)C(=O)N1CCC[C@@H]1C(=O)N1CCC[C@@H]1C(=O)N[C@H](CCCNC(=N)N)C(=O)N[C@H](CCCNC(=N)N)C(=O)N[C@H](CCCNC(=N)N)C(=O)N[C@H](CCC(N)=O)C(=O)N[C@H](CCCNC(=N)N)C(=O)N[C@H](CCCNC(=N)N)C(=O)N[C@H](CCCCN)C(=O)N[C@H](CCCCN)C(=O)N[C@H](CCCNC(=N)N)C(=O)NCC(=O)O)[C@H](C)O)[C@H](C)O` [XG-102] was tested, and the “concentration that prevented VZV replication (lowest concentration tested)” value [1] was 0.25 µM, the “Aβ1-42 levels in Triton X-100 fraction” value (hAPP Tg mice; 0.1 mg/kg) was “significant reduction compared to the vehicle group” and the “number and area percentage of hippocampal ThioflavinS positive plaques” value (hAPP Tg mice; 0.1 and 10 mg/kg) was “negatively dose dependent reduction”. The “spatial learning in the Morris Water Maze” value (hAPP Tg mice; 0.1 or 10 mg/kg s.c. over four months) was “remained widely uninfluenced” and the “cortical plaque load (ThioflavinS)” value (hAPP Tg mice; mouse, in vivo) was “cortical plaque load remained unchanged”.
